Test results taken from patent publication US20050053985A1.
No constants are given. Whether binding was seen depends on the method and setting. Binding seen in cells or lysates may run through a third protein. Here binding means that the protein was enriched with, or labelled near, the bait; the list need not be complete.

Protein sequences, listed by entry. Tags and fused reporters are not part of them.
UniProt Q8NCE0: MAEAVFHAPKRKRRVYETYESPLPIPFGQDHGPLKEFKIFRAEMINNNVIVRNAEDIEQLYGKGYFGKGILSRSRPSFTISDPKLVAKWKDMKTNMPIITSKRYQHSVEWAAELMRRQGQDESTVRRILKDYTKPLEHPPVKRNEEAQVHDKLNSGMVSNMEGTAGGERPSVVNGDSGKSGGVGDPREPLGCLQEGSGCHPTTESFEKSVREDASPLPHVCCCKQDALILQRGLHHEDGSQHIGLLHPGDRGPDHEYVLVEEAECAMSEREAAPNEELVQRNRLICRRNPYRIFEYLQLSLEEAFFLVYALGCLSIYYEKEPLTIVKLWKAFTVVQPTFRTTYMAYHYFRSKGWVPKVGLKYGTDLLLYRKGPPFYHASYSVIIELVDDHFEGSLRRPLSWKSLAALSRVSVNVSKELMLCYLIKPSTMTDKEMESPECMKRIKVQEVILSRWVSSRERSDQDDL

Key:
HsClp1 (human) = target: T1, HsClp1 (human) (UniProt Q92989); assay: co-purification (anti-Flag then Ni beads), SDS-PAGE, silver staining, mass spectrometry
T1 sequence (looked up): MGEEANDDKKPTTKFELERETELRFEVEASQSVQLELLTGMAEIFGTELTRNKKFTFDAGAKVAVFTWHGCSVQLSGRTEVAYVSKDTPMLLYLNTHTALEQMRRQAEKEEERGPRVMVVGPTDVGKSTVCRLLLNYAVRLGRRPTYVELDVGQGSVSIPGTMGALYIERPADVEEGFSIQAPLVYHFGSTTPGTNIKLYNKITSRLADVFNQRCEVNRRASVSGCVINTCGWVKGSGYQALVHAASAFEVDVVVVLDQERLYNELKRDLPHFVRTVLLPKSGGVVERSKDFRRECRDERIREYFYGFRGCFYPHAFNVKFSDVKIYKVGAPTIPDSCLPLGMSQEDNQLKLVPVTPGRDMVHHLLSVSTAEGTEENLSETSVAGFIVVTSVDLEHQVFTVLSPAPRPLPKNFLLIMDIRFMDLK

HsSen54 (human) = target: T2, HsSen54 (human) (UniProt Q7Z6J9); assay: as above
T2 sequence (looked up): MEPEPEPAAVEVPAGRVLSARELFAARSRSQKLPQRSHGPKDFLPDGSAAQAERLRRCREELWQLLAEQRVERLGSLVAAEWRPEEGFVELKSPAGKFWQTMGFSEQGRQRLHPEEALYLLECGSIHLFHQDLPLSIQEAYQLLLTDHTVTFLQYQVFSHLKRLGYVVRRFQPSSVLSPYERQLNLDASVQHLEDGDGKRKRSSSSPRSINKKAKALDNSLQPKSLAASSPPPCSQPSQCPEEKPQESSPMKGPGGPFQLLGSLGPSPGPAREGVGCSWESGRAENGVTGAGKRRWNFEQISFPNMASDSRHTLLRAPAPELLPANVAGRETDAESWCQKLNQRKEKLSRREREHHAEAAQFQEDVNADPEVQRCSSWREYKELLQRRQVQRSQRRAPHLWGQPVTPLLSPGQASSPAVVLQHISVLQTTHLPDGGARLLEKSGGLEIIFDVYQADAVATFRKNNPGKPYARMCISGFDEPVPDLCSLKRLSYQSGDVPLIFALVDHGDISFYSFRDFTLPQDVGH

binding (HsClp1 (human)): binds
binding (HsSen54 (human)): binds
Substance: His-Flag-HsSen2 (from UniProt Q8NCE0 1-465)
